Experimental data published in the supplement of paper PMC10849652.
The list shows a part of the results.

Protein sequences, listed by entry. Tags and fused reporters are not part of them. Lines headed by an entry give the natural chain unless they say otherwise; changes in a name come on top.
UniProt Q14773: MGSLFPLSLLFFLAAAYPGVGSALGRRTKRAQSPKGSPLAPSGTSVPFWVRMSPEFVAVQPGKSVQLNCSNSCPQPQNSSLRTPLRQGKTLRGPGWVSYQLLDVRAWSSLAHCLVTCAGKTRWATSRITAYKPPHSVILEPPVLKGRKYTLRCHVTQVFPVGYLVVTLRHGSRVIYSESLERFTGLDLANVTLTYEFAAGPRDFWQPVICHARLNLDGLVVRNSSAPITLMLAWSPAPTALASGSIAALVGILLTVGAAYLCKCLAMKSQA
UniProt Q4G0P3: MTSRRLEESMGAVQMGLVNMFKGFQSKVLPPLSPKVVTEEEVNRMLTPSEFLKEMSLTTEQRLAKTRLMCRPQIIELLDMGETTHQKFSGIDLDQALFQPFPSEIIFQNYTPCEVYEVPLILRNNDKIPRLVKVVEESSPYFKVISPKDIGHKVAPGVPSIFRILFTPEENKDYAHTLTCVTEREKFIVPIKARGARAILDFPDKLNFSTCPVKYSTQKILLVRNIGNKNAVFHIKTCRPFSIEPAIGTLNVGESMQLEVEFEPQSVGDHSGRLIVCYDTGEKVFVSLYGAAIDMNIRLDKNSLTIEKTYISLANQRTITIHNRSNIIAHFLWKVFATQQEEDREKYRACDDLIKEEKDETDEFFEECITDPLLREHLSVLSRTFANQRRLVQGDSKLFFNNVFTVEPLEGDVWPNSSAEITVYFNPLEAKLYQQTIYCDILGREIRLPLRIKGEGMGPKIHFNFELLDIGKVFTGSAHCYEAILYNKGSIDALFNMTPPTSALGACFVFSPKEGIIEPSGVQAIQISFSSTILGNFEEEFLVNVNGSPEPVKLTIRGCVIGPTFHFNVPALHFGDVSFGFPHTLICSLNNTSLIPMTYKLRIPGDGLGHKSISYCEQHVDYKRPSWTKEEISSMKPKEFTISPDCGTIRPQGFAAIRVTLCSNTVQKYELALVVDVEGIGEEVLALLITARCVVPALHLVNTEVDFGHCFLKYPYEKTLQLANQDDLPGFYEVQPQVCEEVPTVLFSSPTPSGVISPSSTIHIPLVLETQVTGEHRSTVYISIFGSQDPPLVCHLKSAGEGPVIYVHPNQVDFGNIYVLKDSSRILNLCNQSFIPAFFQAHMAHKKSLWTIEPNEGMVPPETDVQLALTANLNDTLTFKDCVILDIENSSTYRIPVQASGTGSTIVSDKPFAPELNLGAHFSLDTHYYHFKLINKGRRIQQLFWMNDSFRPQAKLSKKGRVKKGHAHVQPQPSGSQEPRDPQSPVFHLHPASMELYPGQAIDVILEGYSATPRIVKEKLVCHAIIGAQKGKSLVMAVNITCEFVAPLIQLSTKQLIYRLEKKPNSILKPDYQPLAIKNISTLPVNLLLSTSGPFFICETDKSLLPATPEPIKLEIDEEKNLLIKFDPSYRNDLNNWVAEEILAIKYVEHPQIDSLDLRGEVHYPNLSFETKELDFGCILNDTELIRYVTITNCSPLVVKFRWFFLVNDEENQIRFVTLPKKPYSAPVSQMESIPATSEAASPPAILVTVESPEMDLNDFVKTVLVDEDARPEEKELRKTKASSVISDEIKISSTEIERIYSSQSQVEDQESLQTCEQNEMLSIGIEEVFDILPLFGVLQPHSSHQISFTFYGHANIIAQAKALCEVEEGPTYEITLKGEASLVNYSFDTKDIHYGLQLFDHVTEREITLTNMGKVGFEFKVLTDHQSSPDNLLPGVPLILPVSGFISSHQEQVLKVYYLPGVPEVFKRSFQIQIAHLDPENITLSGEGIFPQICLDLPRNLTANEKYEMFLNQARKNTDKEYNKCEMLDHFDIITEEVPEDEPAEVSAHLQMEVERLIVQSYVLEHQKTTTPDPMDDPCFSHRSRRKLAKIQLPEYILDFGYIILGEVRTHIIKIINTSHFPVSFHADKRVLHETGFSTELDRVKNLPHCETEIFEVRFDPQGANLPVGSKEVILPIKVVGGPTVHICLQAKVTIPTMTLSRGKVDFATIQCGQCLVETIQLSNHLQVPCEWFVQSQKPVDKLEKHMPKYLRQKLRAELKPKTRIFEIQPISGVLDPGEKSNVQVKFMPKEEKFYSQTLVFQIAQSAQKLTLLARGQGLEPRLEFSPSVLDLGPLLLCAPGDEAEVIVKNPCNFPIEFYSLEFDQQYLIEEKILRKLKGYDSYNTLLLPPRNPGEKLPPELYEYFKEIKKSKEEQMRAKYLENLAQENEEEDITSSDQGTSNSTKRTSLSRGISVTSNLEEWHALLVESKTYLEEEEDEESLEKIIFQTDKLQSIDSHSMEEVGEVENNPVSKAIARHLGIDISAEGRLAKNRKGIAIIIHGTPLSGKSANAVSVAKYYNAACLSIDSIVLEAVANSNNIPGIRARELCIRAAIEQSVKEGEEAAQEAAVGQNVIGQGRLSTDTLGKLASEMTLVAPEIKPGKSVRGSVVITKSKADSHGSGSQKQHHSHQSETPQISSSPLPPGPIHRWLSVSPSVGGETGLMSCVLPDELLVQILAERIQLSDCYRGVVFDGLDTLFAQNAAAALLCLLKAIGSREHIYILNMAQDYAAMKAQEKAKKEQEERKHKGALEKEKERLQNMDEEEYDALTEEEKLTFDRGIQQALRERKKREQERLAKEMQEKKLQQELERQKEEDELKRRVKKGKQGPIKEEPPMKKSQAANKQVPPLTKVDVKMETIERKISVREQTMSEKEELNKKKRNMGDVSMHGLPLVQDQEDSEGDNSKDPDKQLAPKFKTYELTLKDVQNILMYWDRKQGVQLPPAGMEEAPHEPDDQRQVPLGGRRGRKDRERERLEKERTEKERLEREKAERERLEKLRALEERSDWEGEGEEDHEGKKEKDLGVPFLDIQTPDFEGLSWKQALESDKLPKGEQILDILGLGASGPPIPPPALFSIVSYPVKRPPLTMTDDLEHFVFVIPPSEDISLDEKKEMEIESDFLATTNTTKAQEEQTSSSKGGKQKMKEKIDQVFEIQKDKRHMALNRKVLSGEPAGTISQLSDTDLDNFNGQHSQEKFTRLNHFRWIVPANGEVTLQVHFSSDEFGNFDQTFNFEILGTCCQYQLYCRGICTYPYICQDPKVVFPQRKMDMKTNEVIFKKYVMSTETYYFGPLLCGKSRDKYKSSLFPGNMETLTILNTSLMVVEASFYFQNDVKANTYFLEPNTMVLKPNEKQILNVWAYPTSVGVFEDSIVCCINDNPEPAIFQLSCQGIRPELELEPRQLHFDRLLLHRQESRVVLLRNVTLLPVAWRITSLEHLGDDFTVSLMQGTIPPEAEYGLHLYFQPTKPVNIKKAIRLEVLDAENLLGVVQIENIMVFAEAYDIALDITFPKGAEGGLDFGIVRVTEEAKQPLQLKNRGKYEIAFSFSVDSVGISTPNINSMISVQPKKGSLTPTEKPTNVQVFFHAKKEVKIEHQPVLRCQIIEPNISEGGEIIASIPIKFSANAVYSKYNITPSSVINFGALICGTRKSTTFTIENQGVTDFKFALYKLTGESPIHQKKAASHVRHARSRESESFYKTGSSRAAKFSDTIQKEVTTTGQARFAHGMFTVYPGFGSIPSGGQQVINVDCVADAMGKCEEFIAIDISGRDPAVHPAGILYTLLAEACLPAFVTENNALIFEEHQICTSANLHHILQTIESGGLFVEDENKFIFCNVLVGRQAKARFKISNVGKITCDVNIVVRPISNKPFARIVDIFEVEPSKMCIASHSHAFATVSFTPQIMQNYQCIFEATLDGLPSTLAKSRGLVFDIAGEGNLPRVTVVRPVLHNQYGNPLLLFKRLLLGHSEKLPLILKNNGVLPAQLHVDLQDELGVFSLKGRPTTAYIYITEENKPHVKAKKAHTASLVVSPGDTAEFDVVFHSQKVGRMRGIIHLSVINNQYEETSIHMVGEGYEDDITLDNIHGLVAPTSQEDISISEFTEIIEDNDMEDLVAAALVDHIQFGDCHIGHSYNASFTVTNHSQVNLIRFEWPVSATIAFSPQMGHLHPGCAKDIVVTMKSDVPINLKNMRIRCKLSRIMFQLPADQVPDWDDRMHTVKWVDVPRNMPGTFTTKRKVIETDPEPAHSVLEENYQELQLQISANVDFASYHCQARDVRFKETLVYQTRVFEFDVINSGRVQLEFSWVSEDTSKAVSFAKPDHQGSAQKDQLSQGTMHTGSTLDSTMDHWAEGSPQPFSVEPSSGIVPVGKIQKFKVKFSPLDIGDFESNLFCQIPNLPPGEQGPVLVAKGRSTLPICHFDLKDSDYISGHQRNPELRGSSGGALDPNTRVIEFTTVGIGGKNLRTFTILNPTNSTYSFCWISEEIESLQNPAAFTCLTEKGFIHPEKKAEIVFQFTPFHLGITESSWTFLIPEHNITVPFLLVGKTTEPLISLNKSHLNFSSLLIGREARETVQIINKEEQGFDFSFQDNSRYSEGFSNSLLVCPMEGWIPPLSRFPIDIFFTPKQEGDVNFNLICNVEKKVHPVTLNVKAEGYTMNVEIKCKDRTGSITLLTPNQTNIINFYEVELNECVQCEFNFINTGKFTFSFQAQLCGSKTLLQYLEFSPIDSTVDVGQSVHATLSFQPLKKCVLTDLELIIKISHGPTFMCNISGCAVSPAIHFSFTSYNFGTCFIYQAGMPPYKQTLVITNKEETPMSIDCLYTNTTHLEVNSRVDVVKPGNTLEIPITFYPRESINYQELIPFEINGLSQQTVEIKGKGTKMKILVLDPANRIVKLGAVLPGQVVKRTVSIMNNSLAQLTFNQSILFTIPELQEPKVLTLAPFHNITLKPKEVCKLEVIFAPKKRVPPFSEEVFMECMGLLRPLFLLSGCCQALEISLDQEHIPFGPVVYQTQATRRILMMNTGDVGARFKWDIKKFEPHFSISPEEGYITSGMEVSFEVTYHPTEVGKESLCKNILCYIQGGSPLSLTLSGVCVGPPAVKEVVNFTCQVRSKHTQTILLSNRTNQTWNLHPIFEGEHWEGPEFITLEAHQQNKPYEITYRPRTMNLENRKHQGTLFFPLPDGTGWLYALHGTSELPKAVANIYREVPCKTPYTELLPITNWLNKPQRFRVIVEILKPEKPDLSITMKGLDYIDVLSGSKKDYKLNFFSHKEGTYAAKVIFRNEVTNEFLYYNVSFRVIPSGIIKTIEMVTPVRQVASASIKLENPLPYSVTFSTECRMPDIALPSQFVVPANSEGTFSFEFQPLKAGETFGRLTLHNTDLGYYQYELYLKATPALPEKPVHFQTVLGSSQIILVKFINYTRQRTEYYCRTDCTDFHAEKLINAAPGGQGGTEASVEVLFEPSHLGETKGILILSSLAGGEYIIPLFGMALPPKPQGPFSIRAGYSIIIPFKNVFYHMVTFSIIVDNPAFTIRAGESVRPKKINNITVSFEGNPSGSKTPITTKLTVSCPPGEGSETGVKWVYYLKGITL
UniProt Q12906, whole entry, looked up: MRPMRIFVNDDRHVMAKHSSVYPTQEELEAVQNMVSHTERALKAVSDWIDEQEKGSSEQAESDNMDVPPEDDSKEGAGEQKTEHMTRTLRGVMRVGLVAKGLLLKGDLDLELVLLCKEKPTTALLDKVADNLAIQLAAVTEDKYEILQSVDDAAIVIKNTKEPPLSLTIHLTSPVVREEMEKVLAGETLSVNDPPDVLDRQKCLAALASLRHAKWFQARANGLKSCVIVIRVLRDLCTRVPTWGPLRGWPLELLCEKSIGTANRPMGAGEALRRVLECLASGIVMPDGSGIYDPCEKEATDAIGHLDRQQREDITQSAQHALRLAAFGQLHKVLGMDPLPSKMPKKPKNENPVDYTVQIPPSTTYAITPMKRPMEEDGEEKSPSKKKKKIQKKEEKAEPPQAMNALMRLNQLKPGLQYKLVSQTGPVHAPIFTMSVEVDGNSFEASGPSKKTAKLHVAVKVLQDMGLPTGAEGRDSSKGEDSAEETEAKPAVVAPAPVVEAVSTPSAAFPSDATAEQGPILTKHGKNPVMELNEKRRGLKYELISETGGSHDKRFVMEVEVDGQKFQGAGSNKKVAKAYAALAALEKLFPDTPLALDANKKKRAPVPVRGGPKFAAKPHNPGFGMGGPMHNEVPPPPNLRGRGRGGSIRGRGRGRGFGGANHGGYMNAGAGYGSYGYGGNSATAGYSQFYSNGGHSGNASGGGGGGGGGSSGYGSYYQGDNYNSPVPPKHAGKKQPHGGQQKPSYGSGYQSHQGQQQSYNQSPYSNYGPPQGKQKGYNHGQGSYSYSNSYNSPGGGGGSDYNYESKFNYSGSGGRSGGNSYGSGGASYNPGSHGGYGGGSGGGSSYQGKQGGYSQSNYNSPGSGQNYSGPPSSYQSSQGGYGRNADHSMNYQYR
UniProt Q9UNL4, whole entry, looked up: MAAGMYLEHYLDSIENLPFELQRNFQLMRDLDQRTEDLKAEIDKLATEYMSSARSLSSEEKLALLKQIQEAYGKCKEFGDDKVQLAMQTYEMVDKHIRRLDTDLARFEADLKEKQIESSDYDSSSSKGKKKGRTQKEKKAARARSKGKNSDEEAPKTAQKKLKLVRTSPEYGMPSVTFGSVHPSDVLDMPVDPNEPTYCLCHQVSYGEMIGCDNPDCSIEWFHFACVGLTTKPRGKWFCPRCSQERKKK

Experiments:
Experiment in all cases: log2 fold change, soluble protein after heating vs DMSO (PISA); higher = thermal stabilisation; K562 lysate, 10 uM; active = over 0.2 and 3.5 SD of the protein, either way, in both replicates (recomputed)
[1] = compound: C=CC(=O)N1CCC[C@@H](n2nc(-c3ccc(Oc4ccccc4)cc3)c3c(N)ncnc32)C1 [ibrutinib]
Outline: (§1)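 The values are log-two fold changes in thermal stability compared with solvent controls and come from duplicates. They were obtained by TMTpro 16plex LC-MS/MS, with channel sums equalised, on the supernatant after 21,000xg for 90 min. That supernatant came from crude K562 extract at 1 mg/mL protein treated with 10 μM compound for 30 min, heated for 3 min across 48°C-58°C, pooled and brought to 0.5% NP-40 at 4°C.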

[2] = compound: CC(=O)c1cnc2ccc(-c3cc(Cl)c(O)c(Cl)c3)nc2c1N[C@H]1CC[C@H](CN(C)C)CC1
Outline: as §1

[3] = compound: CC(C)(C)Cn1c(N)nc2ccc(-c3[nH]c(C(C)(C)C)nc3-c3ccc(F)cc3)nc21 [ralimetinib]
Outline: as §1

[4] = compound: CC(C)(O)CC(=O)NCCn1ccc2ncnc(Nc3ccc(Oc4cccc(C(F)(F)F)c4)c(Cl)c3)c21
Outline: as §1

[5] = compound: CC(C)C1=C2N=C(C=C(N2N=C1)NCC3=CC=CC=C3)NCCCCCCN
Outline: as §1

[6] = compound: CC1=C(C(CC(=O)N1)C2=CC=C(C=C2)C(F)(F)F)C(=O)NC3=C(C=C4C(=C3)C=NN4)F
Outline: as §1

[7] = compound: CC1=C(C2=C(C=C1)C(=O)C3=CC=CC=C3N2CCCN)C
Outline: as §1

[8] = compound: CC1=C(C=C(C=C1)NC(=O)C2=CC(=CC=C2)C(C)(C)C#N)NC3=CC4=C(C=C3)N=CN(C4=O)C
Outline: as §1

[9] = compound: CC1=C(C=C(C=C1)NC(=O)C2=CC(=CC=C2)N(C)C)NC(=O)C3=CC=C(C=C3)O
Outline: as §1

[10] = compound: CC1=CC=C(C=C1)SC2=C3C=C(SC3=CN=C2)C(=O)N
Outline: as §1

[11] = compound: CCCS(=O)(=O)Nc1ccc(F)c(C(=O)c2c[nH]c3ncc(Cl)cc23)c1F
Outline: as §1

[12] = compound: CCN(CCCOc1ccc2c(Nc3cc(CC(=O)Nc4cccc(F)c4)[nH]n3)ncnc2c1)CCOP(=O)(O)O [barasertib]
Outline: as §1

[13] = compound: CC[C@@H]1C(=O)N(C)c2cnc(Nc3ccc(C(=O)NC4CCN(C)CC4)cc3OC)nc2N1C1CCCC1
Outline: as §1

[14] = compound: CC[C@@H]1C(=O)N(C)c2cnc(Nc3ccc(C(=O)N[C@H]4CC[C@H](N5CCN(CC6CC6)CC5)CC4)cc3OC)nc2N1C(C)C [volasertib]
Outline: as §1

[15] = compound: CCn1c(C(=O)N(C2CC2)C2CC2)cc2c3c(ncn3C)c(Nc3cc(C)n(C)n3)nc21
Outline: as §1

[16] = compound: CCn1cc(-c2ccnc3[nH]c(-c4cccc(CN(C)C)c4)cc23)c(-c2ccc(NC(=O)N(C)C)cc2)n1
Outline: as §1

[17] = compound: CN1CCC(CNc2ccc3ncc(-c4cccc(OC(F)(F)F)c4)n3n2)CC1
Outline: as §1

[18] = compound: CN1CCN(CCOc2cc(OC3CCOCC3)c3c(Nc4c(Cl)ccc5c4OCO5)ncnc3c2)CC1 [saracatinib]
Outline: as §1

[19] = compound: CN1CCN(c2nc(C3=C(c4c[nH]c5ccccc45)C(=O)NC3=O)c3ccccc3n2)CC1 [sotrastaurin]
Outline: as §1

[20] = compound: CCCS(=O)(=O)Nc1ccc(F)c(C(=O)c2c[nH]c3ncc(-c4ccc(Cl)cc4)cc23)c1F [vemurafenib]
Outline: as §1

Measured: log2 fold change

HSPA8 (UniProt E9PN89)
inactive: [1] 0.081 | [2] -0.051 | [3] 0.034 | [4] -0.215 | [5] 0.007 | [6] -0.036 | [7] 0.017 | [8] 0.093 | [9] 0.231 | [10] -0.083 | [11] -0.06 | [12] -0.041 | [13] 0.057 | [14] -0.005 | [15] -0.114 | [16] -0.366 | [17] 0.32 | [18] -0.01 | [19] 0.308

IGSF8 (UniProt Q969P0)
inactive: [1] -0.013 | [2] -0.003 | [3] -0.045 | [4] -0.102 | [5] -0.077 | [6] -0.137 | [7] -0.02 | [8] 0.053 | [9] 0.043 | [10] -0.02 | [20] 0.011 | [11] 0.006 | [12] 0.015 | [13] -0.194 | [14] 0.027 | [15] 0.052 | [16] -0.126 | [17] 0.058 | [18] -0.063 | [19] -0.006

IDH2 (UniProt P48735)
inactive: [1] -0.012 | [2] -0.003 | [3] 0.004 | [4] -0.002 | [5] 0.027 | [6] -0.033 | [7] -0.122 | [8] -0.011 | [9] 0.042 | [10] 0.04 | [20] 0.001 | [11] -0.003 | [12] -0.036 | [13] -0.083 | [14] -0.09 | [15] 0.025 | [16] 0.097 | [17] -0.168 | [18] -0.096 | [19] 0.046

ICOSLG isoform 2 (UniProt O75144)
inactive: [1] -0.183 | [3] 0.156 | [4] -0.173 | [9] -0.048 | [12] 0.25 | [15] -0.245

IFT43 (UniProt Q96FT9)
inactive: [1] 0.015 | [3] -0.713 | [4] 0.029 | [5] 0.169 | [7] 0.149 | [8] 0.079 | [9] 0.187 | [20] -0.096 | [12] 0.098 | [15] 0.21 | [18] 0.028 | [19] -0.052

INIP (UniProt Q9NRY2)
inactive: [2] -0.09 | [3] 0.051 | [4] 0.039 | [5] -0.018 | [7] -0.085 | [9] -0.126 | [10] 0.029 | [20] -0.053 | [11] -0.022 | [14] -0.037 | [15] 0.179 | [18] -0.091

ICAM4 isoform 3 (UniProt Q14773)
inactive: [1] 0.038 | [3] -0.138 | [4] -0.257 | [5] -0.046 | [7] -0.25 | [9] -0.063 | [20] -0.03 | [12] 0.043 | [13] -0.092 | [15] -0.343 | [16] -0.084 | [17] 0.022 | [18] 0.026

ICMT (UniProt O60725)
inactive: [1] 0.119 | [3] -0.02 | [4] -0.066 | [6] 0.15 | [7] 0.053 | [8] 0.091 | [9] -0.009 | [20] 0.12 | [12] 0.018 | [13] 0.208 | [15] -0.037 | [18] -0.053 | [19] -0.039

ICE1 (UniProt Q9Y2F5)
inactive: [1] 0.028 | [3] 0 | [4] -0.259 | [6] -0.031 | [7] -0.083 | [8] -0.023 | [9] -0.028 | [12] 0.178 | [13] 0.084 | [15] -0.274 | [16] -0.006 | [17] 0.041 | [18] -0.169 | [19] -0.1

HYDIN (UniProt Q4G0P3)
inactive: [2] -0.076 | [3] 0.148 | [4] -0.071 | [7] -0.05 | [9] -0.107 | [10] 0.017 | [20] -0.075 | [11] 0.081 | [13] 0.089 | [14] 0.021 | [15] 0.76 | [18] 0.028

ILF3 (UniProt Q12906)
inactive: [1] -0.005 | [2] 0.059 | [5] -0.037 | [7] -0.101 | [8] 0.014 | [10] -0.083 | [20] -0.051 | [11] 0.013 | [12] -0.066 | [13] -0.039 | [14] -0.003 | [16] -0.417 | [17] -0.067 | [18] 0.076 | [19] -0.033

INPP5A (UniProt Q14642)
inactive: [1] 0.059 | [3] 0.126 | [4] -0.122 | [5] 0.028 | [7] 0 | [9] 0.016 | [20] -0.044 | [12] -0.035 | [13] -0.068 | [15] 0.154 | [16] -0.054 | [17] 0.152 | [18] 0.115

ICAM4 (UniProt Q14773)
inactive: [1] 0.115 | [3] 0.14 | [4] -0.024 | [7] -0.038 | [9] -0.019 | [12] 0.189 | [13] 0.085 | [15] 0.078 | [16] -0.034 | [17] -0.076 | [18] 0

ING4 (UniProt Q9UNL4)
inactive: [1] 0.213 | [2] -0.053 | [8] -0.131 | [10] -0.266 | [11] 0.018 | [12] 0.016 | [14] 0 | [19] -0.114

HSPH1 isoform 2 (UniProt Q92598)
inactive: [1] -0.302 | [2] -0.083 | [3] 0.006 | [4] 0.011 | [7] 0.169 | [9] -0.212 | [10] -0.102 | [11] 0.019 | [12] -0.123 | [13] 0.061 | [14] 0.135 | [15] 0.021 | [18] -0.003

IFIH1 (UniProt Q9BYX4)
inactive: [1] 0.125 | [2] 0.015 | [10] -0.129 | [11] 0.05 | [12] 0.19 | [13] 0 | [14] -0.012 | [16] 0.093 | [17] -0.515

IL10RB (UniProt Q08334)
inactive: [2] -0.056 | [3] 0.023 | [4] -0.02 | [5] -0.002 | [6] -0.03 | [7] -0.012 | [8] 0.057 | [9] 0.09 | [10] 0.04 | [20] 0.129 | [11] -0.007 | [13] 0.046 | [14] -0.007 | [15] -0.02 | [18] 0.04 | [19] -0.163

IFT22 (UniProt Q9H7X7)
inactive: [1] -0.163 | [3] 0.112 | [4] -0.191 | [5] 0.067 | [7] 0.099 | [9] -0.299 | [12] 0.145 | [13] 0.123 | [15] -0.001 | [18] -0.047

2 neighbouring records from above, for reference:
INPP5A (UniProt Q14642)
inactive: [1] 0.059 | [3] 0.126 | [4] -0.122 | [5] 0.028 | [7] 0 | [9] 0.016 | [20] -0.044 | [12] -0.035 | [13] -0.068 | [15] 0.154 | [16] -0.054 | [17] 0.152 | [18] 0.115

ICAM4 (UniProt Q14773)
inactive: [1] 0.115 | [3] 0.14 | [4] -0.024 | [7] -0.038 | [9] -0.019 | [12] 0.189 | [13] 0.085 | [15] 0.078 | [16] -0.034 | [17] -0.076 | [18] 0

Following part.

IGHMBP2 (UniProt P38935)
inactive: [1] -0.087 | [2] -0.142 | [5] -0.18 | [6] 0.008 | [7] 0.025 | [8] -0.232 | [10] 0.06 | [11] -0.056 | [12] -0.043 | [13] -0.211 | [14] -0.043 | [18] 0.134 | [19] -0.004

IL17RA (UniProt Q96F46)
inactive: [1] 0 | [2] -0.054 | [7] 0.023 | [8] -0.1 | [10] 0.055 | [11] 0.122 | [12] 0.361 | [13] 0.079 | [14] -0.119 | [16] 0.035 | [17] 0.05 | [18] 0 | [19] 0.08

IGLL5 (UniProt B9A064)
inactive: [2] -0.08 | [3] -0.14 | [4] 0.333 | [5] 1.58 | [8] -0.02 | [9] 0.06 | [10] -0.067 | [20] 0.166 | [11] 0.044 | [13] -0.286 | [14] -0.098 | [15] -0.017 | [16] 0.477 | [17] -0.29 | [19] -0.124
